Among the data in the supplement of paper PMC10849652 are log2 fold change values, retold here.

By UniProt entry, the sequences of proteins in these tests, tags left out. Where a name states a change or a piece, a line headed by the entry shows the natural chain unless it says otherwise.
UniProt Q14146: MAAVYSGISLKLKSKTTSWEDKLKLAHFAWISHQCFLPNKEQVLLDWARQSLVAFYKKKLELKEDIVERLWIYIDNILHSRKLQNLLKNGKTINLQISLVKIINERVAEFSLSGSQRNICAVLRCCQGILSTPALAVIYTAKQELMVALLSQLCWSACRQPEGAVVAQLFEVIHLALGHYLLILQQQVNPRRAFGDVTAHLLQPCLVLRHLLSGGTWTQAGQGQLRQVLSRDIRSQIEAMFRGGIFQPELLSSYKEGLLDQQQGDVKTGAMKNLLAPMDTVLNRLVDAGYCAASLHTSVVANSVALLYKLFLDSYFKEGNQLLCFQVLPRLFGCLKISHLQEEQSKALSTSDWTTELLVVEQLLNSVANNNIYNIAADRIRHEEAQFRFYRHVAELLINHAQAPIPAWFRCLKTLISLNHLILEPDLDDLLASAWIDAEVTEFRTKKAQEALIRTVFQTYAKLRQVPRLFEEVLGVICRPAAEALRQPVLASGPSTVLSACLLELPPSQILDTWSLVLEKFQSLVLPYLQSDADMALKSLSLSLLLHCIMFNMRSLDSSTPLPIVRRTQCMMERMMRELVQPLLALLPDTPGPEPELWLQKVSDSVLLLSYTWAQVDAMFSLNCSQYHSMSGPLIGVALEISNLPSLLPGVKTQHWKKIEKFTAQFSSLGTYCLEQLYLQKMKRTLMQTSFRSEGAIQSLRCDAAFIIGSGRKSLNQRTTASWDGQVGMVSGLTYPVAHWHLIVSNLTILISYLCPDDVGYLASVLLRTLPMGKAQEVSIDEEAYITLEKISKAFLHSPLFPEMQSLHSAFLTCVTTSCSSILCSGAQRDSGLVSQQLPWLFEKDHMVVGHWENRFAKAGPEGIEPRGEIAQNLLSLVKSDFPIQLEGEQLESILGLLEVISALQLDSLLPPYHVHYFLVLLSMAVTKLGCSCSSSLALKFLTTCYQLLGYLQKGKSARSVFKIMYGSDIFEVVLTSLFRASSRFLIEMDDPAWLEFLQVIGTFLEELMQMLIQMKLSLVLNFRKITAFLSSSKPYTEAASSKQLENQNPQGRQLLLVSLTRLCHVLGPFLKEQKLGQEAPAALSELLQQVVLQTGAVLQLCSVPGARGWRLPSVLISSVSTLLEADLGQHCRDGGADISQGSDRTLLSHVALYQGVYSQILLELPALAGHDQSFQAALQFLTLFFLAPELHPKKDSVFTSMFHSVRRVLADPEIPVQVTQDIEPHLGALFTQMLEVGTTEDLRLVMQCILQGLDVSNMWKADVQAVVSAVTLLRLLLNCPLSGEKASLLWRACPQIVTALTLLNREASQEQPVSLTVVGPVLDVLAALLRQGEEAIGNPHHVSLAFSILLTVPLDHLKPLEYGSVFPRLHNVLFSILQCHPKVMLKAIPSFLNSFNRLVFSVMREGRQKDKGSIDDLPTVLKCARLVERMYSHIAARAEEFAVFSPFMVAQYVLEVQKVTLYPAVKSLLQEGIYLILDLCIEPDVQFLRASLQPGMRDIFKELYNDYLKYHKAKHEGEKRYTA
UniProt O75317, whole entry, looked up: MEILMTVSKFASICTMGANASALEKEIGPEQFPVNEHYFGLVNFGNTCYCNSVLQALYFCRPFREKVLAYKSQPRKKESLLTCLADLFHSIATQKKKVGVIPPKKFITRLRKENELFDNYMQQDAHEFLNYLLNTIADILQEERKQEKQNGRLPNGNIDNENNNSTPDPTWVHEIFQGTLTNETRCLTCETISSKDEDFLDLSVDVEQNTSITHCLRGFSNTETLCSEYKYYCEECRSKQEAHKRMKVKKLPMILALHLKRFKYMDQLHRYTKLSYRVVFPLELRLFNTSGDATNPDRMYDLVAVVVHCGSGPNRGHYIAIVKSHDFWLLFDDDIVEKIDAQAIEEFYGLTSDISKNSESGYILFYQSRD
UniProt Q9P275: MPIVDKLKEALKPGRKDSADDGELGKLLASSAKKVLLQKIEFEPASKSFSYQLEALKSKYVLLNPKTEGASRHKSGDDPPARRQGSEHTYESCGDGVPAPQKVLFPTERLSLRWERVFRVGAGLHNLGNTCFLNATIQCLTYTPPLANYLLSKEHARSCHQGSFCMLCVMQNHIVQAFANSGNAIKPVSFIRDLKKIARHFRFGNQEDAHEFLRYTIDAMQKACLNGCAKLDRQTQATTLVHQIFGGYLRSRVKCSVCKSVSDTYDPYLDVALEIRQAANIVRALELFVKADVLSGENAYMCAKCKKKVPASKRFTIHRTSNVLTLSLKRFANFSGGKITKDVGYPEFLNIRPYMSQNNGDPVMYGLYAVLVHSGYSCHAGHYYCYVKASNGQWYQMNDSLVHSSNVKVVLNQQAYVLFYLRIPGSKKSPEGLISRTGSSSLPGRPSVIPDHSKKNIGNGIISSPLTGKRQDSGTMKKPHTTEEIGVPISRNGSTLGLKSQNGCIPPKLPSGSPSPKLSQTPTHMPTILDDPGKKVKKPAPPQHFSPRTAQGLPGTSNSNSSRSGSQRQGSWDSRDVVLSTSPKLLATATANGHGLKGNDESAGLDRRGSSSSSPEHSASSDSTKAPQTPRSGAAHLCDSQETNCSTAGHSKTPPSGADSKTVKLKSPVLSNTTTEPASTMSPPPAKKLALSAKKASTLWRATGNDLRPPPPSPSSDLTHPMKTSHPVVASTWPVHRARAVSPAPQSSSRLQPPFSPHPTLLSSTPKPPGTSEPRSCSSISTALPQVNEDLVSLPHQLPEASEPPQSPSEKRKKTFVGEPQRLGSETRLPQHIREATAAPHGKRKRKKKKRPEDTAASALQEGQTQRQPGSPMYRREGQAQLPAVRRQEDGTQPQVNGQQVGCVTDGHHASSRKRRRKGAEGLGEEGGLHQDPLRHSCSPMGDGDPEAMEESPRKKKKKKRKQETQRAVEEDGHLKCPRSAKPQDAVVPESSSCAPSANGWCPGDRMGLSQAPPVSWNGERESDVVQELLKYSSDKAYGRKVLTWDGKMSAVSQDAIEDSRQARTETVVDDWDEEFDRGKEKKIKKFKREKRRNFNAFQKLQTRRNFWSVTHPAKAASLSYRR
UniProt Q9UDW1: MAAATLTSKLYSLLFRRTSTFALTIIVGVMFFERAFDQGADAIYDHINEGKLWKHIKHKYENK
UniProt Q8NB14: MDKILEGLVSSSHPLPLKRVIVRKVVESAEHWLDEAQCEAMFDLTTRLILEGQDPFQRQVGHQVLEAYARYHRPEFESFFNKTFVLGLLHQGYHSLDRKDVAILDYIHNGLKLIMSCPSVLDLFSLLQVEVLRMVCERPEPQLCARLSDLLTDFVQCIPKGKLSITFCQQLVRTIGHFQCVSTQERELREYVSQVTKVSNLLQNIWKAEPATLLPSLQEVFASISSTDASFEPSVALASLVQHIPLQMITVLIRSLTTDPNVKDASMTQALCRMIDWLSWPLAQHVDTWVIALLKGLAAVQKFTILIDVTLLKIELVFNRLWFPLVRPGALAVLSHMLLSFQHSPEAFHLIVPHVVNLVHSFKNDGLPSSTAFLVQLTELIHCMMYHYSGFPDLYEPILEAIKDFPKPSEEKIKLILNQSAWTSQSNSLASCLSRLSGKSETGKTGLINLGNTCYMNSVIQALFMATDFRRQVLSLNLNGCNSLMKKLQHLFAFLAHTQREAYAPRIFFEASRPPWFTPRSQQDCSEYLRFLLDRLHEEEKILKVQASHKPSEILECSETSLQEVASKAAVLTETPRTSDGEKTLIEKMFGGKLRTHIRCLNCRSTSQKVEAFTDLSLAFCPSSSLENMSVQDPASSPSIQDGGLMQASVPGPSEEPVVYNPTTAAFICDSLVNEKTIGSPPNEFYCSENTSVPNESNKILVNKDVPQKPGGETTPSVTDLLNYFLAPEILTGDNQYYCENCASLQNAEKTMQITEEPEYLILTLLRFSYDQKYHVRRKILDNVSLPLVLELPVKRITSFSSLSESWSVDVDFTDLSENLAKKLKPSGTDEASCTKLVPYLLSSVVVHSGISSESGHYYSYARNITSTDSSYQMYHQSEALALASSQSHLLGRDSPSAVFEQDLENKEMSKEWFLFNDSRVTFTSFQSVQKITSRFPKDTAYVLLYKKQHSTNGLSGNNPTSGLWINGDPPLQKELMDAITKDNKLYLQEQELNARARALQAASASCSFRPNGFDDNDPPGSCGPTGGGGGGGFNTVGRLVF
UniProt O75385: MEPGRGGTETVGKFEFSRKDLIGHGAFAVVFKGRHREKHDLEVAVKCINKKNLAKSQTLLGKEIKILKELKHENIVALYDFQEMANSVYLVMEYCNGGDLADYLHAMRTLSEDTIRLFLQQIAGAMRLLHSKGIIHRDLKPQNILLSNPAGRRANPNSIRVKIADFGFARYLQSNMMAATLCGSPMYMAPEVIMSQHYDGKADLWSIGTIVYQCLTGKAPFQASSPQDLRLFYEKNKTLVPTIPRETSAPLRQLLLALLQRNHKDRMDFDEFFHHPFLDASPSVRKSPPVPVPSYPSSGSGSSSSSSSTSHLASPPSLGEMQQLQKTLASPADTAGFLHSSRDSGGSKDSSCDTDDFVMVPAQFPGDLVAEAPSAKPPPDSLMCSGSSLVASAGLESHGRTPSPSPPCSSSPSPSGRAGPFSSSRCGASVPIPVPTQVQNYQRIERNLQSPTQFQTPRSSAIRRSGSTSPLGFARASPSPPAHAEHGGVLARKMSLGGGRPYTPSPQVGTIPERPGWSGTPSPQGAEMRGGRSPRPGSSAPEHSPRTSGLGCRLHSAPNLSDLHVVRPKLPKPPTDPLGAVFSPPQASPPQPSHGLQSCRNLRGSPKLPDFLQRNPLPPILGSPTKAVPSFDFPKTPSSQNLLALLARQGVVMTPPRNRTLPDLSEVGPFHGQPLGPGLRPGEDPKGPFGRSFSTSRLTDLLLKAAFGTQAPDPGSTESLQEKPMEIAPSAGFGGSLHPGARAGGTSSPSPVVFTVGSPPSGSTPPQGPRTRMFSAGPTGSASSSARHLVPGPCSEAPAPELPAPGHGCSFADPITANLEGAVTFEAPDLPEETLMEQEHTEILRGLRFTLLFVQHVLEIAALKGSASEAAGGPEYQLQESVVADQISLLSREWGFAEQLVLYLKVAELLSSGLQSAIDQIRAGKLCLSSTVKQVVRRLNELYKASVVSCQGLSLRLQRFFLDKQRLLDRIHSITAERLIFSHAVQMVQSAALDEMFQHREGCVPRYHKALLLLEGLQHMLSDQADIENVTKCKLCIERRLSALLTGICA
UniProt P55851: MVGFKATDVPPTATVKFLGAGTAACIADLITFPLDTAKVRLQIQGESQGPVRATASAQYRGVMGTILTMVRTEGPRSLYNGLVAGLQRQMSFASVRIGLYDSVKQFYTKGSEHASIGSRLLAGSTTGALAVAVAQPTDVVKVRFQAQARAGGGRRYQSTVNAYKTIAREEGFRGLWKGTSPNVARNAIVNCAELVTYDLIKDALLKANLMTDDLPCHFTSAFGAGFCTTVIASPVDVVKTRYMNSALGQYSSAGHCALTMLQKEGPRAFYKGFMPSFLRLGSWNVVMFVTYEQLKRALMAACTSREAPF
UniProt Q9Y3A2: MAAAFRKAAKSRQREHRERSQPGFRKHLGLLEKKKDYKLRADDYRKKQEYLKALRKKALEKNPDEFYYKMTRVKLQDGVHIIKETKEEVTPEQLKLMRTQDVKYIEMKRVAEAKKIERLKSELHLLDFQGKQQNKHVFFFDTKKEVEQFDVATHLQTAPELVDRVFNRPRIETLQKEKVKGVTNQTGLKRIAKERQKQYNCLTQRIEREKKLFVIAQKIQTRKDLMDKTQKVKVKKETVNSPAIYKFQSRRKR
UniProt O15240: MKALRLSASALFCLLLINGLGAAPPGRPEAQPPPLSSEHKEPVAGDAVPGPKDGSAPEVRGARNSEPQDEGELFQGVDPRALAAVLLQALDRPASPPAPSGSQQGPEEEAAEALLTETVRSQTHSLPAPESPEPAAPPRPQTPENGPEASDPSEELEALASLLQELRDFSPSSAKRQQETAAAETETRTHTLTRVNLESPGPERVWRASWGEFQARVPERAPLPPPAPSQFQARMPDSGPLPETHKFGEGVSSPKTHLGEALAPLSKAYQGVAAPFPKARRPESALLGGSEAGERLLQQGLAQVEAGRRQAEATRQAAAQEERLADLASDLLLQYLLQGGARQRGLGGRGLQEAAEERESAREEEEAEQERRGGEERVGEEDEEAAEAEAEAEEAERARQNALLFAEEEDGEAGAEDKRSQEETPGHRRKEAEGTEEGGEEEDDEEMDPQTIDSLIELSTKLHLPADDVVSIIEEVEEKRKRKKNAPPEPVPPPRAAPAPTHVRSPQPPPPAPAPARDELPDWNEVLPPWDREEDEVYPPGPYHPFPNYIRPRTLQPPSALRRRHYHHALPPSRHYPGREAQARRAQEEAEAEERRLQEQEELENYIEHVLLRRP

This is one part of the list.

Compound in the assay: C1=CC2=C(C=CC(=C2)/C=C\3/C(=O)NC(=NCC4=CC=CS4)S3)N=C1
Briefly: log2 fold change, soluble protein after heating vs DMSO (PISA); higher = thermal stabilisation; K562 lysate, 10 uM; active = over 0.2 and 3.5 SD of the protein, either way, in both replicates (recomputed). The gist of the method: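 Pellets of K562 cells were dounce-homogenised in PBS pH 7.4 with 1 mM MgCl2, and the crude extract was held at 1 mg/mL protein for a 30 min treatment with 10 μM compound. Aliquots were heated for 3 min over 48°C-58°C and pooled before NP-40 was added to 0.5% at 4°C. The supernatant from 21,000xg for 90 min was quantified by TMTpro 16plex LC-MS/MS with channel sums equalised. Values are reported from duplicates as log-two fold change in thermal stability relative to solvent controls.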
Consider USB1 (UniProt Q9BQ65), for which the log2 fold change is inactive: -0.011. The figure for VAV2 (UniProt P52735) is inactive: 0.066.

With URB2 (UniProt Q14146), the log2 fold change is inactive: -0.133. The figure for USP6NL isoform 2 (UniProt Q92738) is inactive: 0.063; for USP12 (UniProt O75317) it is inactive: -0.019; for USP36 (UniProt Q9P275) it is inactive: -0.22. Take UHRF2 (UniProt Q96PU4): the log2 fold change is inactive: 0.024.

For the target UQCR10 (UniProt Q9UDW1), the log2 fold change is inactive: 0.03. In the case of UNKL (UniProt E9PDK2) it was inactive: 0.166. The figure for URGCP (UniProt Q8TCY9) is inactive: -0.075; for USP38 (UniProt Q8NB14) it is inactive: 0.137.

For the target USP37 (UniProt Q86T82), the log2 fold change was inactive: 0.084. In the case of ULK1 (UniProt O75385) it was inactive: -0.122. The figure for UCP2 (UniProt P55851) is inactive: -0.114; for UTP11 (UniProt Q9Y3A2) it is inactive: -0.132. The figure for VGF (UniProt O15240) is inactive: -0.04; for UROD (UniProt H0Y5R6) it is inactive: -0.339.
